Measurements taken from PubChem BioAssay AID1498 (National Center for Advancing Translational Sciences (NCATS), 2009).
The other results are listed elsewhere or left out. These are further read-outs of the screen, such as a control signal, another cell line or another target. No call is given for them. The list favours compounds with an active or inconclusive main result. The note in brackets gives the kind of curve behind each potency; many fits are weak.

Assay: Confirmation Concentration-Response Assay for Modulators of Lamin A Splicing
Details: HeLa lamin A splicing GFP/RFP minigene, Acumen, 48 h; for ratio activity: GFP/RFP ratio at top concentration; for ratio activity / RFP activity: at 46.1 µM; for RFP activity: RFP channel at top concentration
Outline: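 Splicing correction read as ratio of GFP (500-530 nm) to DsRed2 (575-640 nm) object intensity by Acumen cytometry, after 48 h compound treatment of stable HeLa reporter cells (600/well) in 2% FBS medium.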

[1] = measured here: GFP/RFP ratio splicing readout
[2] = measured here: RFP viability/nonspecific counter channel

Structure (SMILES) | ratio activity | RFP activity | AC50 [1] | AC50 [2]
Cc1noc(C)c1-c1ccc2ncnc(NCc3ccc(Cl)cc3)c2c1 | -34.3% | -9.95% | 28.2 µM [falling, partial curve, poor fit] | 
CCOc1ccc(-c2cc(CCCC(=O)NCc3cccnc3)no2)cc1 | -27.2% | 44.2% |  | 0.00126 µM [falling, full curve, poor fit]
O=C1C=CC(=O)N1CCCCCCN1C(=O)C=CC1=O | -74.2% | -43.1% | 7.08 µM [falling, full curve, poor fit] | 3.16 µM [falling, full curve, poor fit]
Cc1[nH]n(-c2nc(-c3cccc([N+](=O)[O-])c3)cs2)c(=O)c1C | -34.4% | 5.87% | 28.2 µM [falling, partial curve, poor fit] | 
O=C(c1ccc2ccccc2c1)N1CCN(c2ccc(O)cc2)CC1 | -43.1% | -19.1% | 3.98 µM [falling, full curve, poor fit] | 
CCOC(=O)CSc1ncnc2c1nnn2-c1ccc(F)cc1 | -8.53% | -20.2% |  | 8.91 µM [falling, single point]
Cc1ccccc1C(=O)N1CCN(c2ccc(NC(=O)CSc3ccc(Cl)cc3)cc2)CC1 | -29.8% | -22.7% | 0.355 µM [falling, full curve, poor fit] | 0.178 µM [falling, full curve, poor fit]
CC(=O)Nc1ccc(CNc2ncnc3ccc(-c4c(C)noc4C)cc23)cc1 | -36.2% | 23.4% | 1.58 µM [falling, full curve] | 
N=c1c2c(ncn1Cc1ccco1)Oc1ccc3ccccc3c1C2c1ccccc1 (centres undefined) | 3.86% | -95.1% |  | 35.5 µM [falling, partial curve, poor fit]
C=CCNC(=O)c1onc(CSc2cccc(C)c2)c1C(=O)O | -8.51% | -10.1% |  | 6.31 µM [rising, single point]
Cc1noc(C)c1-c1ccc2ncnc(NC3CCCc4ccccc43)c2c1 (centres undefined) | -39.7% | 3.86% | 7.94 µM [falling, full curve, poor fit] | 
Cc1noc(C)c1-c1ccc2ncnc(NCc3cccc(F)c3)c2c1 | -12.6% | -4.31% | 2.51 µM [falling, full curve, poor fit] | 
Cc1noc(C)c1CSc1nc2[nH]ncc2c(=O)n1-c1ccccc1 | -33.5% | -6.37% | 0.794 µM [falling, full curve, poor fit] | 
Cc1noc(C)c1-c1ccc2ncnc(NCc3ccc(-c4ccccc4)cc3)c2c1 | -24.1% | -12.5% | 7.08 µM [falling, full curve, poor fit] | 
CNc1ncnc2ccc(-c3c(C)noc3C)cc12 | -7.24% | -31.9% |  | 0.282 µM [falling, full curve, poor fit]
Oc1ccc(/C=N/Nc2nccnc2Cl)c(O)c1 | -31.7% | 36.8% | 2.82 µM [falling, full curve, poor fit] | 5.01 µM [rising, full curve, poor fit]
O=c1cc(N2CCOCC2)oc2c(-c3ccccc3)cccc12 | -42.8% | -16.8% | 7.08 µM [falling, partial curve, poor fit] | 
Nc1ccc(N2CCN(C(=O)c3ccco3)CC2)cc1 | -43.7% | -11.9% | 8.91 µM [falling, full curve, poor fit] | 
Oc1ccc(N=Nc2n[nH]c(-c3ccc(Br)cc3)n2)cc1 | -42% | -64.1% | 11.2 µM [falling, full curve, poor fit] | 14.1 µM [falling, full curve, poor fit]
Cc1ccccc1S(=O)(=O)Cc1ccc(C(=O)N2CCN(c3cccc(C)c3C)CC2)o1 | -23.6% | -52.5% | 0.708 µM [falling, full curve, poor fit] | 0.0126 µM [rising, full curve, poor fit]
O=C(NCc1ccco1)/C(=C/c1cccc(C(F)(F)F)c1)c1nc2ccccc2[nH]1 | -36.2% | -21.7% | 12.6 µM [falling, full curve, poor fit] | 5.01 µM [falling, full curve, poor fit]

Part of the list above, limited to AC50 [2]:
Structure (SMILES)	AC50 [2]
CCOC(=O)CSc1ncnc2c1nnn2-c1ccc(F)cc1	8.91 µM [falling, single point]
Cc1ccccc1C(=O)N1CCN(c2ccc(NC(=O)CSc3ccc(Cl)cc3)cc2)CC1	0.178 µM [falling, full curve, poor fit]

Remaining list, next part:

Structure (SMILES) | ratio activity | RFP activity | AC50 [1] | AC50 [2]
N=c1ccn2c(n1)OC1C(O)[C@@H](CO)O[C@H]12 (some centres undefined) | -39.7% | 51.4% | 0.0355 µM [falling, full curve] | 0.447 µM [rising, full curve, poor fit]
COc1ccc(NC(=O)/C(Cl)=C(/Cl)S(=O)(=O)Cc2ccccc2)cn1 | 100% | -96.7% | 100 µM [falling, partial curve, poor fit] | 3.16 µM [falling, full curve, poor fit]
CC1CCC(NC(=O)c2ccc(/C=C3\Oc4ccccc4N(C)C3=O)cc2)CC1 (centres undefined) | 51.8% | -99.1% | 25.1 µM [rising, partial curve, poor fit] | 7.94 µM [falling, full curve, poor fit]
Cn1nnnc1Sc1ncnc2scc(-c3ccccc3)c12 | -39.7% | -52.3% | 2.24 µM [falling, full curve] | 28.2 µM [falling, partial curve, poor fit]
CCC(Nc1ncnc2ccc(-c3c(C)noc3C)cc12)c1ccccc1 (centres undefined) | -42.2% | 20.6% | 2.24 µM [falling, full curve] | 10 µM [rising, full curve, poor fit]
CN(C)CC(C(=O)c1ccccc1)c1ccccc1 (centres undefined) | -12.8% | -90.6% | 0.501 µM [falling, full curve, poor fit] | 7.94 µM [falling, full curve, poor fit]
COc1cc([C@H]2c3cc4c(cc3[C@@H](O[C@H]3O[C@H]5CO[C@@H](C)O[C@H]5[C@@H](O)[C@@H]3O)[C@@H]3COC(=O)[C@H]23)OCO4)cc(OC)c1O | -36.7% | 15.7% | 0.178 µM [falling, full curve] | 0.158 µM [rising, full curve, poor fit]
Cc1nn(Cc2ccccc2Cl)c(C)c1C(=O)Nc1nnc(C2CC2)s1 | -39.5% | -40% | 1.78 µM [falling, full curve] | 11.2 µM [falling, partial curve, poor fit]
COc1ccc(CNc2ncnc3ccc(-c4c(C)noc4C)cc23)cc1 | -49.7% | 29.2% | 2.51 µM [falling, full curve] | 14.1 µM [rising, full curve, poor fit]
Cc1noc(C)c1-c1ccc2ncnc(NCc3ccc(F)c(F)c3)c2c1 | -17.1% | -30.4% | 3.55 µM [falling, full curve] | 0.000447 µM [falling, full curve, poor fit]
COc1ccccc1-c1nnc2sc(-c3ccc(N(C)C)cc3)nn12 | -23% | -69.5% | 0.178 µM [falling, full curve, poor fit] | 3.16 µM [falling, full curve, poor fit]
O=C(NCc1cccnc1)/C(=C\c1ccc(-c2cccc(Cl)c2)o1)S(=O)(=O)c1ccccc1 | 6.75% | -76.7% | 0.891 µM [falling, full curve, poor fit] | 7.94 µM [falling, full curve, poor fit]
Cc1noc(C)c1-c1ccc2ncnc(NCc3ccc4c(c3)OCO4)c2c1 | -31.9% | 8.77% | 8.91 µM [falling, partial curve, poor fit] | 4.47 µM [falling, partial curve, poor fit]
Cc1csc(CNc2ncnc3ccc(-c4c(C)noc4C)cc23)c1 | -2.44% | -49.7% | 2.82 µM [falling, full curve] | 0.251 µM [rising, full curve, poor fit]
CC1=CC(C)(C)N(S(=O)(=O)c2ccc(C)cc2)c2ccccc21 | -17.4% | -64.2% | 5.62 µM [falling, full curve, poor fit] | 8.91 µM [falling, full curve, poor fit]
Cc1ccc2nc(NNC(=O)c3ccc(S(=O)(=O)N4CCc5ccccc5C4)cc3)sc2c1 | -31.2% | 46.5% | 1.41 µM [falling, full curve, poor fit] | 3.55 µM [rising, full curve, poor fit]
CSc1nc(N(C)NC(=O)c2ccc(Cl)cc2)c2ccccc2n1 | -21.5% | -64% | 0.398 µM [falling, full curve, poor fit] | 31.6 µM [falling, partial curve, poor fit]
N=c1ccn2c(n1)O[C@@H]1[C@@H](O)[C@H](CO)O[C@H]12 | -36.6% | 41.7% | 0.0316 µM [falling, full curve] | 0.398 µM [rising, full curve, poor fit]
O=S(=O)(CC(CN1CCCC1)N1CCCC1)c1ccc2ccccc2c1 (centres undefined) | -39% | -32.4% | 1.12 µM [falling, full curve, poor fit] | 7.08 µM [falling, full curve, poor fit]
Cc1noc(C)c1-c1ccc2ncnc(NCc3cccc(C(F)(F)F)c3)c2c1 | 2.28% | -94.7% | 2.82 µM [falling, full curve, poor fit] | 15.8 µM [falling, full curve, poor fit]
